Record: PubChem BioAssay AID493246 (Drosophila RNAi Screening Center, 2011)

- Screen: 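Genome-wide search for dsRNAs that reduce cell number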 (primary screen)
- Cells: Drosophila Kc and S2R+ cells
- Knock-down reagent: long dsRNA against Drosophila genes
- Detection: 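Raw, unnormalised count of remaining cells in each well; per-plate z-scores of cell number underlie the calls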
- Direction: Kc cell number and S2R+ cell number: higher = more cells remaining
- Active means: 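Active when the per-plate z-score of cell number is 3 or more in the direction of fewer cells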
The screen tested about 21,000 reagents; shown is a random part of those that have a named target and a result. In the full data, 429 (2%) are marked active. 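Values are raw and not normalised between plates; calls rest on per-plate z-scores that were not deposited.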 Reagent sequences are not shown. Not given: the amount of reagent, the time to read-out.

St1 (Sulfotransferase 1) [DRSC04504]
- Kc cell number, rep 1: 1.34e6
- Kc cell number, rep 2: 1.40e6
- S2R+ cell number, rep 1: 1.14e6
- S2R+ cell number, rep 2: 1.39e6
- call: inactive

CG11598 [DRSC14331]
- Kc cell number, rep 1: 1.57e6
- Kc cell number, rep 2: 1.66e6
- S2R+ cell number, rep 1: 1.48e6
- S2R+ cell number, rep 2: 1.61e6
- call: inactive

CG13036 (retired record) [DRSC09916]
- Kc cell number, rep 1: 1.46e6
- Kc cell number, rep 2: 1.44e6
- S2R+ cell number, rep 1: 1.16e6
- S2R+ cell number, rep 2: 1.34e6
- call: inactive

CG13203 [DRSC06327]
- Kc cell number, rep 1: 1.47e6
- Kc cell number, rep 2: 1.50e6
- S2R+ cell number, rep 1: 1.25e6
- S2R+ cell number, rep 2: 1.38e6
- call: inactive

Eph (Eph receptor tyrosine kinase) [DRSC17164]
- Kc cell number, rep 1: 1.79e6
- Kc cell number, rep 2: 1.82e6
- S2R+ cell number, rep 1: 1.11e6
- S2R+ cell number, rep 2: 1.24e6
- call: inactive

Klp10A (Kinesin-like protein at 10A) [DRSC19601]
- Kc cell number, rep 1: 5.30e5
- S2R+ cell number, rep 1: 7.57e5
- call: inactive

atilla [DRSC02971]
- Kc cell number, rep 1: 1.65e6
- Kc cell number, rep 2: 1.58e6
- S2R+ cell number, rep 1: 1.34e6
- S2R+ cell number, rep 2: 1.45e6
- call: inactive

Art4 (Arginine methyltransferase 4) [DRSC15779]
- Kc cell number, rep 1: 1.73e6
- Kc cell number, rep 2: 1.71e6
- S2R+ cell number, rep 1: 1.40e6
- S2R+ cell number, rep 2: 1.52e6
- call: inactive

CG14506 [DRSC14858]
- Kc cell number, rep 1: 1.46e6
- Kc cell number, rep 2: 1.44e6
- S2R+ cell number, rep 1: 1.01e6
- S2R+ cell number, rep 2: 1.14e6
- call: inactive

CG7824 [DRSC16321]
- Kc cell number, rep 1: 1.48e6
- Kc cell number, rep 2: 1.53e6
- S2R+ cell number, rep 1: 1.02e6
- S2R+ cell number, rep 2: 1.09e6
- call: inactive

Rpt4 (Regulatory particle triple-A ATPase 4) [DRSC18713]
- Kc cell number, rep 1: 8.90e5
- Kc cell number, rep 2: 8.86e5
- S2R+ cell number, rep 1: 6.71e5
- S2R+ cell number, rep 2: 7.70e5
- call: active

CG32249 [DRSC08101]
- Kc cell number, rep 1: 1.38e6
- Kc cell number, rep 2: 1.29e6
- S2R+ cell number, rep 1: 1.00e6
- S2R+ cell number, rep 2: 1.12e6
- call: inactive

CG32249 [DRSC08177]
- Kc cell number, rep 1: 1.53e6
- Kc cell number, rep 2: 1.44e6
- S2R+ cell number, rep 1: 1.06e6
- S2R+ cell number, rep 2: 1.21e6
- call: inactive

CG15145 [DRSC02446]
- Kc cell number, rep 1: 1.46e6
- Kc cell number, rep 2: 1.50e6
- S2R+ cell number, rep 1: 1.25e6
- S2R+ cell number, rep 2: 1.43e6
- call: inactive

pygo (pygopus) [DRSC14322]
- Kc cell number, rep 1: 3.53e5
- S2R+ cell number, rep 1: 5.23e5
- call: inactive

alpha-Man-Ia (alpha-Mannosidase class I a) [DRSC17642]
- Kc cell number, rep 1: 1.25e6
- Kc cell number, rep 2: 1.41e6
- S2R+ cell number, rep 1: 9.47e5
- S2R+ cell number, rep 2: 9.80e5
- call: inactive

alpha-Man-Ia (alpha-Mannosidase class I a) [DRSC18162]
- Kc cell number, rep 1: 1.66e6
- Kc cell number, rep 2: 1.48e6
- S2R+ cell number, rep 1: 1.18e6
- S2R+ cell number, rep 2: 1.20e6
- call: inactive

alpha-Man-Ia (alpha-Mannosidase class I a) [DRSC18163]
- Kc cell number, rep 1: 1.65e6
- Kc cell number, rep 2: 1.53e6
- S2R+ cell number, rep 1: 1.11e6
- S2R+ cell number, rep 2: 1.26e6
- call: inactive

alpha-Man-Ia (alpha-Mannosidase class I a) [DRSC18735]
- Kc cell number, rep 1: 1.57e6
- Kc cell number, rep 2: 1.47e6
- S2R+ cell number, rep 1: 1.08e6
- S2R+ cell number, rep 2: 1.16e6
- call: inactive

CG31921 [DRSC00013]
- Kc cell number, rep 1: 1.54e6
- Kc cell number, rep 2: 1.49e6
- S2R+ cell number, rep 1: 1.01e6
- S2R+ cell number, rep 2: 1.14e6
- call: inactive

CG6362 [DRSC07413]
- Kc cell number, rep 1: 1.52e6
- Kc cell number, rep 2: 1.55e6
- S2R+ cell number, rep 1: 1.10e6
- S2R+ cell number, rep 2: 1.28e6
- call: inactive

CG15525 [DRSC15062]
- Kc cell number, rep 1: 1.58e6
- Kc cell number, rep 2: 1.57e6
- S2R+ cell number, rep 1: 1.07e6
- S2R+ cell number, rep 2: 1.24e6
- call: inactive

PolD2 (DNA polymerase delta subunit 2) [DRSC08147]
- Kc cell number, rep 1: 1.29e6
- Kc cell number, rep 2: 1.36e6
- S2R+ cell number, rep 1: 1.17e6
- S2R+ cell number, rep 2: 1.22e6
- call: inactive

JhI-26 (Juvenile hormone-inducible protein 26) [DRSC06851]
- Kc cell number, rep 1: 1.31e6
- Kc cell number, rep 2: 1.37e6
- S2R+ cell number, rep 1: 1.21e6
- S2R+ cell number, rep 2: 1.20e6
- call: inactive

CG17234 [DRSC00490]
- Kc cell number, rep 1: 1.45e6
- Kc cell number, rep 2: 1.50e6
- S2R+ cell number, rep 1: 1.03e6
- S2R+ cell number, rep 2: 1.18e6
- call: inactive

enok (enoki mushroom) [DRSC04096]
- Kc cell number, rep 1: 1.54e6
- Kc cell number, rep 2: 1.66e6
- S2R+ cell number, rep 1: 1.00e6
- S2R+ cell number, rep 2: 9.97e5
- call: inactive

sktl (skittles) [DRSC04715]
- Kc cell number, rep 1: 1.34e6
- Kc cell number, rep 2: 1.40e6
- S2R+ cell number, rep 1: 1.13e6
- S2R+ cell number, rep 2: 1.20e6
- call: inactive
